Results: patent US6586455B1, “Treatment of liposarcomas using a combination of thiazolidinediones and retinoid X receptor selective agonists” (The Salk Institute for Biological Studies, priority 1996, dated 2003)
At least one structure is not confirmed: it was looked up by name or label, or the drawing left a doubt.

Legend:
[1] = tested on: primary human liposarcoma cells; test: Induction of differentiation in primary human liposarcoma cell strains (LS857, LS175, LS707); assay type: cell-based; details: for induction of differentiation (lipid accumulation, adipocyte morphology): primary liposarcoma cell strains, serum and insulin
[2] = tested on: LS857 cells; test: Differentiation / lipid accumulation of primary human liposarcoma cells LS857; assay type: cell-based; details: 7 days, 5 μM thiazolidinedione, 50 nM LG268, four more days of culture
Protocol: Liposarcomas have presumably acquired one or more genetic defects that interfere with the course of normal adipocyte development. The observation that PPARγ is expressed consistently in these tumors raised the possibility that the malignant cells might be forced to complete the differentiation program by maximally activating the PPARγ pathway. To address this possibility, primary cells isolated from three human liposarcomas were cultured in vitro. Primary cell strains LS857 and LS175 were derived from well differentiated liposarcomas and LS707 was derived from an intermediate grade myxoid/round cell liposarcoma (see Table 3). High grade pleomorphic liposarcoma cells could not be expanded to sufficient numbers to permit studies of differentiation. A primary leiomyosarcoma cell line LM203 was cultured as a control. To confirm that these cultures consisted of malignant tumor-derived cells, cytogenetic analysis was performed.
When cultured in the presence of fetal bovine serum and insulin, conditions permissive for adipocyte differentiation, all three cell lines maintain a fibroblastic morphology. LS175 cells contained small amounts of stainable lipid under these conditions. […] This experiment was performed at least twice with each cell strain with quantitatively and qualitatively similar results. […]

[3] = tested on: LM203 leiomyosarcoma cells; test: Lipid accumulation in primary leiomyosarcoma control cells LM203; assay type: cell-based, human; details: LM203 leiomyosarcoma cells (do not express PPARγ); 10 μM, 7 days
[4] = tested on: aP2 and adipsin; test: Northern analysis of adipocyte-specific markers in LS857 cells; assay type: cell-based, human

`CN(CCOc1ccc(CC2SC(=O)NC2=O)cc1)c1ccccn1` (centres unmarked) [BRL49653] was tested, and the “induction of differentiation (lipid accumulation, adipocyte morphology)” value [1] was “Induction of differentiation was also observed” and the “lipid accumulation, oil red O, macroscopic view of culture dishes” value [2] was “significant lipid accumulation”.

In the case of `CCc1ccc(CCOc2ccc(CC3SC(=O)NC3=O)cc2)nc1` (centres unmarked) [pioglitazone], the “differentiated morphology after withdrawal of the compound” value ([1]; after induction for 7 days) is reported as “maintained their differentiated morphology”, the “induction of differentiation (lipid accumulation, adipocyte morphology)” value [1] is reported as “readily accumulated lipid and adopted a morphology characteristic of mature culture adipocytes” and the “lipid accumulation, oil red O, macroscopic view of culture dishes” value [2] is reported as “significant lipid accumulation”. For the same molecule, the lipid accumulation [3] was “No lipid accumulation” and the “induction of mRNAs encoding aP2 and adipsin” value [4] was “induction”.

For `Cc1c(C)c2c(c(C)c1O)CCC(C)(COc1ccc(CC3SC(=O)NC3=O)cc1)O2` (centres unmarked) [troglitazone], the “induction of differentiation (lipid accumulation, adipocyte morphology)” value [1] was “Induction of differentiation was also observed”.
